The target of the assay is PSMB5-FLAG (UniProt P28074). Put plainly: co-IP; anti-FLAG M2 IP from transfected HEK293 lysate treated with benzonase, washed with RIPA buffer; cells untreated or treated with CPT (20 µM, 30 min).

Chains of the proteins cited; added tags and fusions are not shown. Lines headed by an entry give the natural chain unless they say otherwise; changes in a name come on top.
UniProt P28074: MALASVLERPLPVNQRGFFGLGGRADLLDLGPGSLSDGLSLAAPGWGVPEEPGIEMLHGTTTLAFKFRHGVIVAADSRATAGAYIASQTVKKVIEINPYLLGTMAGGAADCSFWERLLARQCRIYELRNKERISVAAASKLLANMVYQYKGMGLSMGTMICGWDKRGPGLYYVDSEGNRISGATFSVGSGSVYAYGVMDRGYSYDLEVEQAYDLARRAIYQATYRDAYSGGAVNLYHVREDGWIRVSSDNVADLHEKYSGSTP
UniProt P11387: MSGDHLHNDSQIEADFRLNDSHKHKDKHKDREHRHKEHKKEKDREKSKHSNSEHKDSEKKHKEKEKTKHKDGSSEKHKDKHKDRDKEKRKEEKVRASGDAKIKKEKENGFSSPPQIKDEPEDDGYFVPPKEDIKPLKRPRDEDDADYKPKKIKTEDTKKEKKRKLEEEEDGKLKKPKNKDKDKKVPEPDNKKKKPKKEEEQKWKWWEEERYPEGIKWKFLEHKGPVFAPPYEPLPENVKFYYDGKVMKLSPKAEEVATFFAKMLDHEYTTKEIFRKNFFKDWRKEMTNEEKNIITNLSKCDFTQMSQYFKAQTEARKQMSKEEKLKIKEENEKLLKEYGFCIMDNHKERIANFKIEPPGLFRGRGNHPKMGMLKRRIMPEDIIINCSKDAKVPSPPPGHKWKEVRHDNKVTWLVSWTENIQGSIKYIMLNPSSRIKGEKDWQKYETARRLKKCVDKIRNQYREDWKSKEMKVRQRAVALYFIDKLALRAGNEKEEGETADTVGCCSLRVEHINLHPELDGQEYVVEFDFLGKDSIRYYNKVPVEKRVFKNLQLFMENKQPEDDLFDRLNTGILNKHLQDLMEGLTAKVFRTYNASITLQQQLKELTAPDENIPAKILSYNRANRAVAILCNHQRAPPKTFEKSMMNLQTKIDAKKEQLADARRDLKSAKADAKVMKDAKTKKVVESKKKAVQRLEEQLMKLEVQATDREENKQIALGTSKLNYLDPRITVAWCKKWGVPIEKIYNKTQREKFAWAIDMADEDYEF

No constants are given. Whether binding was seen depends on the method and setting. Binding seen in cells or lysates may run through a third protein. Binding calls can cover weak binding; strength is not graded here.

Turning to “TOP1 (topoisomerase I), endogenous (from UniProt P11387 1-765) (enzyme)”, the binding result is “binds”.

The record behind these values is publication PMC8373905.
